# Assay results published in the supplement of paper PMC8728848.
# The other results are listed elsewhere or left out.
# B1: PGP3 (Chlamydia trachomatis), P0CE18 (protein)
# chain: MGNSGFYLYNTQNCVFADNIKVGQMTEPLKDQQIILGTTSTPVAAKMTASDGISLTVSNNPSTNASITIGLDAEKAYQLILEKLGDQILGGIADTIVDSTVQDILDKITTDPSLGLLKAFNNFPITNKIQCNGLFTPRNIETLLGGTEIGKFTVTPKSSGSMFLVSADIIASRMEGGVVLALVREGDSKPYAISYGYSSGVPNLCSLRTRIINTGLTPTTYSLRVGGLESGVVWVNALSNGNDILGITNTSNVSFLEVIPQTNA
# Columns and labels:
# Experiment in all cases: glycan array binding signal (z-score within array); higher = stronger binding
# Conditions in all cases: glycan notation: IUPAC condensed, linker removed
# [1] = biological target: Gal(b1-4)GlcNAc(b1-3)Gal(b1-4)Glc
# In short: (§1)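 Glycan array data came from 3228 arrays in the Consortium for Functional Glycomics database, and only arrays with an available protein sequence were kept. Glycan names were put into IUPAC-condensed notation, and columns mapping to the same glycan were averaged. The binding signal is a within-array Z-score, averaged across arrays of one protein sequence run at different concentrations or buffers and across linkers. A negative Z-score can be read as non-binding.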
# [2] = biological target: Gal(b1-4)GlcNAc(b1-3)Gal(b1-4)GlcNAc
# In short: as §1
# [3] = biological target: Gal(b1-4)GlcNAc(b1-3)Gal(b1-4)GlcNAc(b1-3)Gal(b1-4)GlcNAc
# In short: as §1
# [4] = biological target: Gal(b1-4)GlcNAc(b1-3)Gal(b1-4)[Fuc(a1-3)GlcNAc(b1-6)]Gal(b1-4)Glc
# In short: as §1
# [5] = biological target: Gal(b1-4)GlcNAc(b1-3)Gal(b1-4)[Fuc(a1-3)]GlcNAc(b1-3)Gal(b1-4)[Fuc(a1-3)]GlcNAc
# In short: as §1
# [6] = biological target: Gal(b1-4)GlcNAc(b1-3)GalNAc
# In short: as §1
# [7] = biological target: Gal(b1-4)GlcNAc(b1-3)[Gal(b1-4)GlcNAc(b1-6)]Gal(b1-4)GlcNAc
# In short: as §1
# [8] = biological target: Gal(b1-4)GlcNAc(b1-3)[Gal(b1-4)GlcNAc(b1-6)]GalNAc
# In short: as §1
# [9] = biological target: Gal(b1-4)GlcNAc(b1-3)[GlcNAc(b1-6)]Gal(b1-4)GlcNAc
# In short: as §1
# [10] = biological target: Gal(b1-4)GlcNAc(b1-6)Gal(b1-4)GlcNAc
# In short: as §1
# [11] = biological target: Gal(b1-4)GlcNAc(b1-6)GalNAc
# In short: as §1
# [12] = biological target: Gal(b1-4)GlcNAc(b1-6)[Gal(b1-3)]GalNAc
# In short: as §1
# Gal(b1-6)Gal = biological target: Gal(b1-6)Gal
# In short: as §1
# Gal3S(b1-3)GalNAc = biological target: Gal3S(b1-3)GalNAc
# In short: as §1
# Gal3S(b1-3)GlcNAc = biological target: Gal3S(b1-3)GlcNAc
# In short: as §1
# [13] = biological target: Gal3S(b1-3)[Fuc(a1-4)]GlcNAc
# In short: as §1
# Gal3S(b1-4)Glc = biological target: Gal3S(b1-4)Glc
# In short: as §1
# Gal3S(b1-4)Glc6S = biological target: Gal3S(b1-4)Glc6S
# In short: as §1
# Gal3S(b1-4)GlcNAc = biological target: Gal3S(b1-4)GlcNAc
# In short: as §1
# Gal3S(b1-4)GlcNAc6S = biological target: Gal3S(b1-4)GlcNAc6S
# In short: as §1
# [14] = biological target: Gal3S(b1-4)[Fuc(a1-3)]Glc
# In short: as §1
# [15] = biological target: Gal3S(b1-4)[Fuc(a1-3)]Glc6S
# In short: as §1
# Gal3S4S(b1-4)GlcNAc = biological target: Gal3S4S(b1-4)GlcNAc
# In short: as §1
# Gal3S6S(b1-4)GlcNAc = biological target: Gal3S6S(b1-4)GlcNAc
# In short: as §1
# Gal3S6S(b1-4)GlcNAc6S = biological target: Gal3S6S(b1-4)GlcNAc6S
# In short: as §1
# Gal4S(b1-4)GlcNAc = biological target: Gal4S(b1-4)GlcNAc
# In short: as §1
# Gal4S6S(b1-4)GlcNAc = biological target: Gal4S6S(b1-4)GlcNAc
# In short: as §1
# Gal6S(b1-3)GlcNAc = biological target: Gal6S(b1-3)GlcNAc
# In short: as §1
# Gal6S(b1-3)GlcNAc6S = biological target: Gal6S(b1-3)GlcNAc6S
# In short: as §1
# Gal6S(b1-4)Glc = biological target: Gal6S(b1-4)Glc
# In short: as §1
# Gal6S(b1-4)Glc6S = biological target: Gal6S(b1-4)Glc6S
# In short: as §1
# Gal6S(b1-4)GlcNAc = biological target: Gal6S(b1-4)GlcNAc
# In short: as §1
# Gal6S(b1-4)GlcNAc6S = biological target: Gal6S(b1-4)GlcNAc6S
# In short: as §1
# GalNAc(a1-3)Gal = biological target: GalNAc(a1-3)Gal
# In short: as §1
# GalNAc(a1-3)GalNAc = biological target: GalNAc(a1-3)GalNAc
# In short: as §1
# [16] = biological target: GalNAc(a1-3)GalNAc(b1-3)Gal(a1-4)Gal(b1-4)Glc
# In short: as §1
# [17] = biological target: GalNAc(a1-3)GalNAc(b1-3)Gal(a1-4)Gal(b1-4)GlcNAc
# In short: as §1
binder,measurement,setting,value
B1,glycan array binding signal (z-score),[1],-0.67
same,glycan array binding signal (z-score),[2],-1.29
same,glycan array binding signal (z-score),[3],1.21
same,glycan array binding signal (z-score),[4],-0.022
same,glycan array binding signal (z-score),[5],0.322
same,glycan array binding signal (z-score),[6],-1.53
same,glycan array binding signal (z-score),[7],-0.365
same,glycan array binding signal (z-score),[8],-0.523
same,glycan array binding signal (z-score),[9],-1.03
same,glycan array binding signal (z-score),[10],-0.881
same,glycan array binding signal (z-score),[11],-1.12
same,glycan array binding signal (z-score),[12],-0.461
same,glycan array binding signal (z-score),Gal(b1-6)Gal,0.036
same,glycan array binding signal (z-score),Gal3S(b1-3)GalNAc,-0.343
same,glycan array binding signal (z-score),Gal3S(b1-3)GlcNAc,0.438
same,glycan array binding signal (z-score),[13],-0.174
same,glycan array binding signal (z-score),Gal3S(b1-4)Glc,-0.636
same,glycan array binding signal (z-score),Gal3S(b1-4)Glc6S,-0.222
same,glycan array binding signal (z-score),Gal3S(b1-4)GlcNAc,-0.219
same,glycan array binding signal (z-score),Gal3S(b1-4)GlcNAc6S,-0.312
same,glycan array binding signal (z-score),[14],1.69
same,glycan array binding signal (z-score),[15],-1.96
same,glycan array binding signal (z-score),Gal3S4S(b1-4)GlcNAc,0.096
same,glycan array binding signal (z-score),Gal3S6S(b1-4)GlcNAc,-1.04
same,glycan array binding signal (z-score),Gal3S6S(b1-4)GlcNAc6S,-1.31
same,glycan array binding signal (z-score),Gal4S(b1-4)GlcNAc,-0.79
same,glycan array binding signal (z-score),Gal4S6S(b1-4)GlcNAc,1.01
same,glycan array binding signal (z-score),Gal6S(b1-3)GlcNAc,-0.786
same,glycan array binding signal (z-score),Gal6S(b1-3)GlcNAc6S,0.068
same,glycan array binding signal (z-score),Gal6S(b1-4)Glc,0.677
same,glycan array binding signal (z-score),Gal6S(b1-4)Glc6S,1.35
same,glycan array binding signal (z-score),Gal6S(b1-4)GlcNAc,-1.44
same,glycan array binding signal (z-score),Gal6S(b1-4)GlcNAc6S,-0.202
same,glycan array binding signal (z-score),GalNAc(a1-3)Gal,0.576
same,glycan array binding signal (z-score),GalNAc(a1-3)GalNAc,-0.476
same,glycan array binding signal (z-score),[16],1.04
same,glycan array binding signal (z-score),[17],0.732

# Some of the entries above, reformatted.
binder | measurement | setting | value
B1 | glycan array binding signal (z-score) | Gal3S(b1-4)Glc6S | -0.222
same | glycan array binding signal (z-score) | Gal3S(b1-4)GlcNAc | -0.219
